From patent US20230272011A1
No constants are given. Whether binding was seen depends on the method and setting. Some results given as binding are weak or reduced against the parent protein; the word gives no strength. For some of these results: Where a sequence is shown, tags or fusion partners need not be part of it. Values belong to the binder of their own block, whether it stands above or below them.

Chains of the proteins cited; added tags and fusions are not shown. Lines headed by an entry give the natural chain unless they say otherwise; changes in a name come on top. Residues count along the entry.
UniProt Q9NZQ7, residues 19-239: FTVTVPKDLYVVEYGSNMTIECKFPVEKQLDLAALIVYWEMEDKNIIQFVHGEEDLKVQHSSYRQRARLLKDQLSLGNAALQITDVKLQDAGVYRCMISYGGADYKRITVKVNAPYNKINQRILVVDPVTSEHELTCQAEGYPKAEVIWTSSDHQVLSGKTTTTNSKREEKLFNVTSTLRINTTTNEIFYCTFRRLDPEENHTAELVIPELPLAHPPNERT
UniProt P02768, residues 25-609: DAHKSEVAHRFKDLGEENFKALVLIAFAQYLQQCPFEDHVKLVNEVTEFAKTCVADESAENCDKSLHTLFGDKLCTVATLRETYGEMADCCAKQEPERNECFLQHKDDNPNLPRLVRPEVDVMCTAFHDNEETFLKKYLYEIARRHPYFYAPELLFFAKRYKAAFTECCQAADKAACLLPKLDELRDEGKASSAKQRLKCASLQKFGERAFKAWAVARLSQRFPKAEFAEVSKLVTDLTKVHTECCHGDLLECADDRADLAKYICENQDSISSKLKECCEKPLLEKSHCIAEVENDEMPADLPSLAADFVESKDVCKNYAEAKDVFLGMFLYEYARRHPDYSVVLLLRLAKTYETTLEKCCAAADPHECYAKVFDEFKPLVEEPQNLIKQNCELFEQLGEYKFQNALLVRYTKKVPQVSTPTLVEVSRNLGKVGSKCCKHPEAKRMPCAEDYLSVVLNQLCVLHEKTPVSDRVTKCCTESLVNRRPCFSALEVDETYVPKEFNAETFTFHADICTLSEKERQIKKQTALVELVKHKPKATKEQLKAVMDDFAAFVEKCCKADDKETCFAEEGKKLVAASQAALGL
UniProt P07724, residues 25-608: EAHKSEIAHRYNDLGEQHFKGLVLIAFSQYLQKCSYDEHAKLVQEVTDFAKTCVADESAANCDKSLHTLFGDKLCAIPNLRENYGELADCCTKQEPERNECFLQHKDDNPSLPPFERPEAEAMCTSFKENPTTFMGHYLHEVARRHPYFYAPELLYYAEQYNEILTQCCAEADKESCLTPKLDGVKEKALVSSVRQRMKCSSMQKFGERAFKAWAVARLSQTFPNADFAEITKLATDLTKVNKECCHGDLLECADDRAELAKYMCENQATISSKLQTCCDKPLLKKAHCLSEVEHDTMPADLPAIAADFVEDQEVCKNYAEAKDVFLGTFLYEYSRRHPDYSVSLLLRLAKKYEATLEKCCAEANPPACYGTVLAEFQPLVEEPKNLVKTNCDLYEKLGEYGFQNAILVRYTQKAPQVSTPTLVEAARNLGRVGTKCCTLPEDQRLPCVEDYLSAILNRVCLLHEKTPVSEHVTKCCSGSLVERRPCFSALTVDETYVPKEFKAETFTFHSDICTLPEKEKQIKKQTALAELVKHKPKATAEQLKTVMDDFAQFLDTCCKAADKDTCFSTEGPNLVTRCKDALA
UniProt Q9EP73: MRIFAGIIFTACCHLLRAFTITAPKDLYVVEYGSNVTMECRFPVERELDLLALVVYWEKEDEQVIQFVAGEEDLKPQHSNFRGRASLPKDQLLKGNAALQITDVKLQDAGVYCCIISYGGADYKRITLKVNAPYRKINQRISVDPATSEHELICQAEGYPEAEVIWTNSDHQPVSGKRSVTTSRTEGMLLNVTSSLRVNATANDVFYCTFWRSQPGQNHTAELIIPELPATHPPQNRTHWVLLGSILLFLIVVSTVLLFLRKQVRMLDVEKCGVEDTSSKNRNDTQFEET

How the values were obtained:
[1] = biological target: human PD-L1-Fc (R&D Systems) chimeric protein (human) (UniProt Q9NZQ7); assay: binding ELISA, coated human PD-L1-Fc
[2] = biological target: human serum albumin (human) (UniProt P02768); assay: BLI (Octet), pH 7.4
[3] = biological target: mouse serum albumin (mouse) (UniProt P07724); assay: BLI (Octet), pH 7.4
mPD-L1 (mouse) = mPD-L1 (mouse) (UniProt Q9EP73); assay: competitive ELISA (mPD-1/mPD-L1), Affimer pre-incubated with mPD-L1

binding [1]: binds
B1: AVA04-251 BH (designed binder)
chain: MIPRGLSEAKPATPEIQEIVDKVKPQLEEKTNETYGKLEAVQYKTQVLAREGRQDWVLSTNYYIKVRAGDNKYMHLKVFNGPWVPFPHQQLADRVLTGYQVDKNKDDELTGFAEAAAKEAAAKEAAAKEAAAKEAAAKEAAAKMIPRGLSEAKPATPEIQEIVDKVKPQLEEKTNETYGKLEAVQYKTQVLAREGRQDWVLSTNYYIKVRAGDNKYMHLKVFNGPWVPFPHQQLADRVLTGYQVDKNKDDELTGFHHHHHH

binding [2]: binds
binding [3]: binds
B2: HSA-41, C-terminal 6x His tag cleaved (designed binder)
chain: MIPRGLSEAKPATPEIQEIVDKVKPQLEEKTNETYGKLEAVQYKTQVLANFFQRRWPGSTNYYIKVRAGDNKYMHLKVFNGPWKFRNTDRGADRVLTGYQVDKNKDDELTGFEQKLISEEDL

binding (mPD-L1 (mouse)): binds
B3: AVA04-182 XT20 (designed binder)
chain: MIPRGLSEAKPATPEIQEIVDKVKPQLEEKTNETYGKLEAVQYKTQVLAFALPEFEYMSTNYYIKVRAGDNKYMHLKVFNGPPMIRRKNEVADRVLTGYQVDKNKDDELTGFAEAAAKEAAAKEAAAKEAAAKEAAAKEAAAKMIPRGLSEAKPATPEIQEIVDKVKPQLEEKTNETYGKLEAVQYKTQVLAFALPEFEYMSTNYYIKVRAGDNKYMHLKVFNGPPMIRRKNEVADRVLTGYQVDKNKDDELTGFAEAAAKEAAAKEAAAKEAAAKEAAAKEAAAKMIPRGLSEAKPATPEIQEIVDKVKPQLEEKTNETYGKLEAVQYKTQVLANFFQRRWPGSTNYYIKVRAGDNKYMHLKVFNGPWKFRNTDRGADRVLTGYQVDKNKDDELTGFHHHHHH
